Experimental data published in PubChem BioAssay AID485314 (National Center for Advancing Translational Sciences (NCATS), 2010).
About 4,500 (1.3%) of roughly 340,000 compounds were called active. Inconclusive means that the source gave no clear call. Such entries were picked first, then a sample of the others. Calls come from the whole dose curve; as a rule, active = well fitted inhibition curve with a large enough effect; inconclusive = small, poorly fitted or top-dose-only effect, or another doubt; inactive = no such curve, though single readings can be large or run the other way. A potency beside an inconclusive call is a rough fit, not a confirmed value.

target: DNA polymerase beta (Homo sapiens) (UniProt P06746); assay: qHTS Assay for Inhibitors of DNA Polymerase Beta; conditions: Pol beta primer extension/strand displacement, fluorescence kinetic; activity change, negative = inhibition: at 114 µM (top of the series)
In short: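 Curves were derived by four-parameter Hill fits of normalized qHTS data. The kinetic fluorescent primer-extension read was taken at 0 and 10 min after 50 nM substrate, following a 15 min room-temperature preincubation of 10 nM enzyme with compounds.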
% is set by controls: 0 for no effect and ±100 for the full control effect; potency is the fitted concentration of half-maximal effect.

Activity change, negative = inhibition, inactive:
COCCCNc1nc(NCc2ccc(C)cc2)c2cnn(C)c2n1 27.6%
CCc1ccccc1NC(=O)NC(CC)Cn1nnc2ccccc2c1=O (stereo unspecified) -13.7%
O=C(NCCc1ccc(Cl)cc1)C(=O)NCC(c1cccs1)S(=O)(=O)c1ccccc1 (stereo unspecified) -7.08%
Fc1ccc(N2CCN(c3ncnc4c3nc3n4CCCC3)CC2)cc1 4.23%
CC(C)(C)CC(=O)Nc1cc2c3c(c1)CCN3C(=O)CC2 30.5%
COC(=O)c1cc2oc3ccccc3c2n1CC(=O)Nc1ccc(N(C)C)cc1 45.9%
O=C(c1n[nH]c(=O)c2ccccc12)N1CCOCC1 24.7%
Cn1cc(S(=O)(=O)N2CCCCC2)cc1C(=O)NCc1ccc(Cl)cc1 34.1%
Cc1cccc(-n2c(SCC(=O)Nc3ccccc3C)nc3c(oc4ccccc43)c2=O)c1 11.9%
CCc1cc(=O)[nH]c(-n2[nH]c(-c3ccccc3)cc2=O)n1 19.5%
CCOC(=O)c1c(C)[nH]c(-c2csc(N)n2)c1C -12.2%
COc1cccc(CSc2nc(-c3ccccc3OC)nc3c2Cc2c(CO)cnc(C)c2O3)c1 -1.16%
CCc1ccc(/C=C2\C(=N)N3N=C(CC(=O)N4CCCCC4)SC3=NC2=O)cc1 -7.79%
Cc1ccc(C)c(C(=O)CSc2nc3cc(C(=O)NC4CCCC4)ccc3c(=O)n2CC2CCCO2)c1 (stereo unspecified) -0.0821%
O=C(O)CCn1ccc2cc(S(=O)(=O)N3CCCCC3)ccc21 9.05%

Activity change, negative = inhibition, inconclusive:
O=C(Cc1ccc(Cl)cc1)Nc1ccc2oc(-c3ccccc3F)nc2c1 -119% [inhibitor]
COC(C(=O)Nc1ccnn1C1CCN(C(=O)c2cccc(F)c2)CC1)c1ccccc1 (stereo unspecified) -36.2% [inhibitor]

Potency, inconclusive:
CCCCCCn1ccc(=N)cc1 39.8 µM [inhibitor, single point]
O=C(c1ccccc1Cl)N1CCN(S(=O)(=O)N2CCCCC2)CC1 0.708 µM [inhibitor, single point]
Cc1cc(OCC(=O)Nc2ccncc2)ccc1Cl 3.55 µM [inhibitor, single point]
O=C(COc1ccc(S(=O)(=O)N2CCCC2)cc1)NCc1ccco1 31.6 µM [inhibitor, full curve]
COc1ccc(N2CCN(C(=O)c3oc4ccccc4c3C)CC2)cc1 63.1 µM [inhibitor, single point]
O=C1CN(C(=O)COC(=O)C2CCN(S(=O)(=O)c3ccccc3C(F)(F)F)CC2)c2ccccc2N1 89.1 µM [inhibitor, single point]
COC(=O)c1ccccc1NC(=O)c1cc(-c2ccco2)on1 31.6 µM [inhibitor, full curve, poor fit]
CCN(c1cccc(C)c1)c1nc2ccsc2c(=O)s1 0.355 µM [inhibitor, single point]
CCCOc1ccc2[nH]c(C(=O)N/N=C/c3cc(OC)c(OC)c(OC)c3)cc2c1 100 µM [inhibitor, single point]
CCOC(=O)N1CCN(S(=O)(=O)c2ccc(F)c(C(=O)Nc3cc(C)cc(C)c3)c2)CC1 70.8 µM [inhibitor, single point]
O=C(NCc1ccco1)c1ccc2snnc2c1 100 µM [inhibitor, single point]
Cc1ccccc1CC1(CO)CCCN(C(=O)c2ccccc2N(C)C)C1 (stereo unspecified) 89.1 µM [inhibitor, single point]
O=c1nc(N(c2ccccc2)c2ccccc2)[nH]c(=O)[nH]1 89.1 µM [inhibitor, single point]
CCOC(=O)C1=C(C)Nc2nc3ccccc3n2C1c1ccncc1 (stereo unspecified) 89.1 µM [inhibitor, single point]
Cn1c(C(=O)N2CCN(c3cccc(C(F)(F)F)c3)CC2)cc2sccc21 0.1 µM [inhibitor, full curve, poor fit]
COc1ccc(C2c3c(-c4ccc(F)cc4)n[nH]c3C(=O)N2c2ccccc2)cc1OC (stereo unspecified) 0.316 µM [inhibitor, partial curve]
COc1cc(/C=C2/C(=N)N3C(=NC2=O)SN=C3S(=O)(=O)C(C)C)ccc1OS(=O)(=O)c1ccccc1 89.1 µM [inhibitor, single point]
CCNC(=O)CC1C(=O)N(c2ccccc2)C(=O)N1Cc1ccc(OC)cc1 (stereo unspecified) 25.1 µM [inhibitor, partial curve]
O=C(CSc1nnnn1-c1ccc2c(c1)CCC2)NCc1cccs1 79.4 µM [inhibitor, single point]
Cc1c(C(=O)OCC(=O)Nc2ccc(S(N)(=O)=O)cc2)oc2c1ccc1ccccc12 35.5 µM [inhibitor, full curve]
COc1ccc(C(CNC(=O)c2ccc(S(=O)(=O)N3CCOCC3)cc2)N2CCCCC2)cc1 (stereo unspecified) 89.1 µM [inhibitor, single point]
COc1ccc(NC(=O)NCCCN2CCN(c3cc(C)ccc3C)CC2)cc1 89.1 µM [inhibitor, single point]
N#CC1=C(N)n2c(s/c(=C\c3cccs3)c2=O)=C(C#N)C1c1cccs1 (stereo unspecified) 25.1 µM [inhibitor, single point]
CCOC(=O)c1cc2c(=O)n3ccccc3nc2n(Cc2ccco2)c1=NC(=O)c1ccc(OC)cc1OC 22.4 µM [inhibitor, full curve, poor fit]
Cc1cc(-c2nnc(SCCC(=O)Nc3ccccc3)o2)no1 20 µM [inhibitor, full curve]
CC(C)=CCCC1(C)C=Cc2c(c(C)cc3c2[nH]c2cc(O)ccc23)O1 (stereo unspecified) 89.1 µM [inhibitor, single point]
COC(=O)c1ccc(NC(=O)CN(c2cccc(C(F)(F)F)c2)S(C)(=O)=O)cc1 35.5 µM [inhibitor, partial curve]
O=C(O)c1ccccc1N/N=C/c1c(Sc2nnnn2-c2ccccc2)nc2ccccn2c1=O 5.01 µM [inhibitor, full curve, poor fit]
O=C1CCCN2N=C(SCC(=O)Nc3cccc(F)c3)SC2=N1 56.2 µM [inhibitor, partial curve]
Nc1cccc(Nc2nc(OC(C(F)(F)F)C(F)(F)F)nc(OC(C(F)(F)F)C(F)(F)F)n2)c1 39.8 µM [inhibitor, single point]
Cc1c(Nc2scc(-c3ccccc3)[n+]2-c2ccccc2)c(=O)n(-c2ccccc2)n1C 89.1 µM [inhibitor, single point]
COc1ccc(N2C(=O)CCC2=O)cc1 89.1 µM [inhibitor, single point]
COc1ccc(CCNC(=O)/C=C/c2ccco2)cc1 2 µM [inhibitor, partial curve, poor fit]
CCOC(=O)C1(CCC(C)C)CC(CSc2nc3ccccc3[nH]2)OC1=O (stereo unspecified) 14.1 µM [inhibitor, partial curve]
Cc1ccc2oc(C(=O)N(Cc3ccccc3)C3CCS(=O)(=O)C3)c(C)c2c1 (stereo unspecified) 39.8 µM [inhibitor, single point]
Cc1ccc(N(C(=O)Cn2nnc(-c3ccc(C)o3)n2)C(C(=O)NC2CCCC2)c2ccncc2)cc1 (stereo unspecified) 0.1 µM [inhibitor, full curve, poor fit]
COc1ccc2nc3cc(Cl)ccc3c(Nc3cc(CN4CCCC4)c(O)c(CN4CCCC4)c3)c2n1 28.2 µM [inhibitor, full curve]
Cc1cccc(C(=O)NNC(=O)c2ccc(-c3ccccc3)cc2)c1 11.2 µM [inhibitor, full curve]
CCOCC(=O)Nc1cc(-c2cn3cccnc3n2)ccc1C 3.55 µM [inhibitor, single point]

Part of the list above in order of length of the SMILES, high to low.
Potency, inconclusive:
COc1cc(/C=C2/C(=N)N3C(=NC2=O)SN=C3S(=O)(=O)C(C)C)ccc1OS(=O)(=O)c1ccccc1 89.1 µM [inhibitor, single point]
CCOC(=O)N1CCN(S(=O)(=O)c2ccc(F)c(C(=O)Nc3cc(C)cc(C)c3)c2)CC1 70.8 µM [inhibitor, single point]
COC(=O)c1ccc(NC(=O)CN(c2cccc(C(F)(F)F)c2)S(C)(=O)=O)cc1 35.5 µM [inhibitor, partial curve]
CC(C)=CCCC1(C)C=Cc2c(c(C)cc3c2[nH]c2cc(O)ccc23)O1 (stereo unspecified) 89.1 µM [inhibitor, single point]
Cc1cccc(C(=O)NNC(=O)c2ccc(-c3ccccc3)cc2)c1 11.2 µM [inhibitor, full curve]
O=C(CSc1nnnn1-c1ccc2c(c1)CCC2)NCc1cccs1 79.4 µM [inhibitor, single point]
COC(=O)c1ccccc1NC(=O)c1cc(-c2ccco2)on1 31.6 µM [inhibitor, full curve, poor fit]
COc1ccc(CCNC(=O)/C=C/c2ccco2)cc1 2 µM [inhibitor, partial curve, poor fit]
Cc1cc(OCC(=O)Nc2ccncc2)ccc1Cl 3.55 µM [inhibitor, single point]
COc1ccc(N2C(=O)CCC2=O)cc1 89.1 µM [inhibitor, single point]

Following part.

Potency, active:
Cc1ccc(-n2nc3c(=O)n(C(C)C(=O)NCc4ccccc4C)nc(C)c3c2C)cc1 (stereo unspecified) 44.7 µM
NC(=O)c1ccsc1NC(=O)CSc1nnc2ccccn12 25.1 µM
CC(C)CC1=C/C(=C/c2ccc(-c3ccccc3)o2)C(=O)O1 15.8 µM
CCOc1ccccc1-n1nnnc1SCC(=O)NC(=O)NCc1ccco1 22.4 µM
O=c1[nH]c(=O)n(Cc2ccccc2)c2nc(-c3cccs3)n(CCO)c12 35.5 µM
COc1ccc(/C=N/c2nc3ccccc3n2C)cc1OC 79.4 µM
CN=c1scc(-c2cccs2)n1/N=C/c1ccc(O)c(O)c1O 2.82 µM
C=C(C)C(=O)Nc1cccc(C2=NOC3(C2)C[C@H](C(N)=O)N(C(=O)/C=C/C)C3)c1 (stereo partly specified) 5.01 µM
Oc1c(Cl)cc(Cl)cc1Sc1cc(Cl)cc(Cl)c1O 22.4 µM
CCOC(=O)c1cnn(-c2nc(SC)nc3sc4c(c23)CCC4)c1N 10 µM
COc1cc(CC2COC(c3ccc(O)c(OC)c3)C2COC(C)=O)ccc1O (stereo unspecified) 6.31 µM
O=C(O)CC(NC(=O)c1ccco1)c1ccco1 (stereo unspecified) 79.4 µM
COc1ccc(/C=N/NC(=O)c2ccc(O)cc2O)cc1CSc1ccccn1 20 µM
O=[N+]([O-])c1c(Nc2ccccc2O)cc(Cl)c2nonc12 17.8 µM
CC(=O)n1cc(/C=N/NC(=O)c2sc(C)nc2C)c2ccccc21 17.8 µM

Looked up by structure from the list above:
Potency, active:
CC(=O)n1cc(/C=N/NC(=O)c2sc(C)nc2C)c2ccccc21 17.8 µM
COc1ccc(/C=N/NC(=O)c2ccc(O)cc2O)cc1CSc1ccccn1 20 µM
